Data reported in patent publication US12605412B2, “Microbial compositions for improving the efficacy of anticancer treatments based on immune checkpoint inhibitors and/or tyrosine kinase inhibitors and markers of responsiveness to such treatments” (INSTITUT GUSTAVE ROUSSY, priority 2019, dated 2026).
At least one compound was matched to its structure with a doubt left.

System: orthotopic luciferase engineered-renal cell carcinoma (RENCA)
Assay: Orthotopic luciferase-engineered RENCA in ATB-treated BALB/c mice after FMT, treated with CICB or ICB plus axitinib, with or without oral gavage of commensals or responder feces
Type: in vivo

CNC(=O)c1ccccc1Sc1ccc2c(/C=C/c3ccccn3)n[nH]c2c1 [axitinib]
compensation of NR FMT induced dysbiosis and responsiveness to ICB (NR FMT mice, microbiota-dependent manner): could compensate NR FMT induced dysbiosis and reduced responsiveness to ICB | antitumor efficacy of the combination axitinib with ICB and A. muciniphila (RENCA tumor bearers with or without FMT NR (FIG. 7B-C)): markedly increased efficacy
